These are yes or no findings as the source states them, for the method shown. Binding seen in cells or lysates may run through a third protein. Some entries that bind do so weakly or less than the wild type.
Target: NF-кB p50 subunit (human (endogenous in HepG2)) (UniProt P19838)
Experiment: co-IP; HepG2 whole-cell lysate (2 mg), endogenous proteins; IP with anti-NF-кB p50 or anti-Annexin A2 antibody, protein A/G beads, 4 °C; cells treated 12 h without or with 3.75 μg/mL (20S)G-Rh2, 100 ng/mL PMA or 25 μg/mL etoposide

The chains behind the UniProt entries cited, without tags or fusion partners. Residues count along the entry.
UniProt P19838, residues 1-433: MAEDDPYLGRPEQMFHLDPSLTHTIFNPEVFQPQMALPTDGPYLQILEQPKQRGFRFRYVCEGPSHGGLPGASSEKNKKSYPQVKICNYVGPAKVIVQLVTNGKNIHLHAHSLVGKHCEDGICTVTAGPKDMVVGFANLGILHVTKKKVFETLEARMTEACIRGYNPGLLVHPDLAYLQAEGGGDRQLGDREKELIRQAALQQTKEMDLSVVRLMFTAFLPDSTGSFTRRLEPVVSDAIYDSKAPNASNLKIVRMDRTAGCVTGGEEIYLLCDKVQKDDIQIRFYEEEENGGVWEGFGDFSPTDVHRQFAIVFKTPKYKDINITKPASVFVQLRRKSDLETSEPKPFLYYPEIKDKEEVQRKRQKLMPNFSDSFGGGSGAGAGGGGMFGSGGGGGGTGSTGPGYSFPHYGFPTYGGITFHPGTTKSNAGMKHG
UniProt P07355: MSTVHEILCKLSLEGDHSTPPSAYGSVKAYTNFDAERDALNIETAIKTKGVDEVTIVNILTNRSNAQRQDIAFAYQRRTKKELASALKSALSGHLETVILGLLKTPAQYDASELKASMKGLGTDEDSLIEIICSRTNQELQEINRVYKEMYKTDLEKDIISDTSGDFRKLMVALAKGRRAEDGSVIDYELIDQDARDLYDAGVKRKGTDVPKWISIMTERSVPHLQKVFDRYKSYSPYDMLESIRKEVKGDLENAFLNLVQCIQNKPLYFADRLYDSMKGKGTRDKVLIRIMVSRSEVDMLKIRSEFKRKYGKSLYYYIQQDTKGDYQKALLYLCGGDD

binding: binds
Substance: Annexin A2 (from UniProt P07355 1-339)

— PMC5622071, “The identification of molecular target of (20S) ginsenoside Rh2 for its anti-cancer activity” (Scientific Reports, 2017)
